The values below come from patent publication US6696546.

Amino acid sequences for entries named in this document (tags omitted). A change or cut given only in a name is not applied to a line headed by its entry.
UniProt P14635: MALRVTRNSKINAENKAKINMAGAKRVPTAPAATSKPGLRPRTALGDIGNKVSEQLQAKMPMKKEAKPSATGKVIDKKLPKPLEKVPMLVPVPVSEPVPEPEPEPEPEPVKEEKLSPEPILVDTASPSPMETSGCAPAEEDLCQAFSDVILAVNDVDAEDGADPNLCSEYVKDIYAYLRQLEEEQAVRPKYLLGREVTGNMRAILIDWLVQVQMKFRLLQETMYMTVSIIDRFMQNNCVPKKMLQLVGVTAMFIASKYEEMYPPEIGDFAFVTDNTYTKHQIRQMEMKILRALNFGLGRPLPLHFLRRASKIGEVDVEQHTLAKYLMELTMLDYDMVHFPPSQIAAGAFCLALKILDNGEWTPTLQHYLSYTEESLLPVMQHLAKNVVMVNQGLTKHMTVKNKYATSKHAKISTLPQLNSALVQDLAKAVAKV
UniProt P06493: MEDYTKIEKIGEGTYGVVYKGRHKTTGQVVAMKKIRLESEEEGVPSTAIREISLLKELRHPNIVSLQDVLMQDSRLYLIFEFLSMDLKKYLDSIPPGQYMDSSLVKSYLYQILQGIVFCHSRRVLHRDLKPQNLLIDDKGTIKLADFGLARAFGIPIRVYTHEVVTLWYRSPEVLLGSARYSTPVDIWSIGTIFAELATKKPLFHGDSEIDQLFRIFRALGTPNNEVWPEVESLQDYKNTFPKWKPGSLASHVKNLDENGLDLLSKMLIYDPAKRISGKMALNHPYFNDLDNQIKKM

No constants are given. Whether binding was seen depends on the method and setting. For part of these data: In cells and extracts the contact can be indirect. Some binding calls cover weakened binding; strength is not graded here. For part of these data: Tags and fused reporters may be left off the sequences shown.

For experiment [1], the target named is T1, human cyclin B1/flu epitope-tagged p34cdc2 (human) (UniProt P14635+P06493). Briefly: modified far-western.
For experiment [2], the target named is T1, human cyclin B1/flu epitope-tagged p34cdc2 (human). Put plainly: modified far-western: PAP II (1 µg) on nitrocellulose, renatured, incubated with cyclin B1/p34cdc2 (100 ng), detected with anti-cyclin B1 antibody.
Experiment [3] has as its target GST-Cyclin B1 fusion protein (UniProt P14635). Put plainly: GST-cyclin B1 pull-down of in vitro translated 35S PAPs, autoradiography.

B1: baculovirus-produced and purified histidine-tagged PAP II (enzyme, UniProt P25500 1-739, looked up, not shown: small tags and cut ends)
chain: MPFPVTTQGSQQTQPPQKHYGITSPISLAAPKETDCLLTQKLVETLKPFGVFEEEEELQRRILILGKLNNLVKEWIREISESKNLPQSVIENVGGKIFTFGSYRLGVHTKGADIDALCVAPRHVDRSDFFTSFYDKLKLQEEVKDLRAVEEAFVPVIKLCFDGIEIDILFARLALQTIPEDLDLRDDSLLKNLDIRCIRSLNGCRVTDEILHLVPNIDNFRLTLRAIKLWAKRHNIYSNILGFLGGVSWAMLVARTCQLYPNAIASTLVHKFFLVFSKWEWPNPVLLKQPEECNLNLPVWDPRVNPSDRYHLMPIITPAYPQQNSTYNVSVSTRMVMVEEFKQGLAITDEILLSKAEWSKLFEAPNFFQKYKHYIVLLASAPTEKQRLEWVGLVESKIRILVGSLEKNEFITLAHVNPQSFPAPKENPDKEEFRTMWVIGLVFKKTENSENLSVDLTYDIQSFTDTVYRQAINSKMFEVDMKIAAMHVKRKQLHQLLPSHVLQKKKKHSTEGVKLTPLNDSSLDLSMDSDNSMSVPSPTSAMKTSPLNSSGSSQGRNSPAPAVTAASVTNIQATEVSLPQINSSESSGGTSSESIPQTATQPAISSPPKPTVSRVVSSTRLVNPPPRPSGNAAAKIPNPIVGVKRTSSPHKEESPKKTKTEEDETSEDANCLALSGHDKTETKEQLDTETSTTQSETIQTATSLLASQKTSSTDLSDIPALPANPIPVIKNSIKLRLNR
In the case of B1, the binding result in experiment [1] and in experiment [2] was “binds” in each case.

B2: C-terminal truncated PAP (1-434) (enzyme, bovine, UniProt P25500 1-434, looked up)
chain: MPFPVTTQGSQQTQPPQKHYGITSPISLAAPKETDCLLTQKLVETLKPFGVFEEEEELQRRILILGKLNNLVKEWIREISESKNLPQSVIENVGGKIFTFGSYRLGVHTKGADIDALCVAPRHVDRSDFFTSFYDKLKLQEEVKDLRAVEEAFVPVIKLCFDGIEIDILFARLALQTIPEDLDLRDDSLLKNLDIRCIRSLNGCRVTDEILHLVPNIDNFRLTLRAIKLWAKRHNIYSNILGFLGGVSWAMLVARTCQLYPNAIASTLVHKFFLVFSKWEWPNPVLLKQPEECNLNLPVWDPRVNPSDRYHLMPIITPAYPQQNSTYNVSVSTRMVMVEEFKQGLAITDEILLSKAEWSKLFEAPNFFQKYKHYIVLLASAPTEKQRLEWVGLVESKIRILVGSLEKNEFITLAHVNPQSFPAPKENPDKEEFR
modifications: 35S label (in vitro translated)
For the molecule B2, the binding entry in experiment [3] is reported as “binds”.
